Assay [1] concerns the target T1, individual CRD-C domain of hDkk1 with point mutation D194A, IgG-fused (human) (UniProt O94907).
T1 sequence: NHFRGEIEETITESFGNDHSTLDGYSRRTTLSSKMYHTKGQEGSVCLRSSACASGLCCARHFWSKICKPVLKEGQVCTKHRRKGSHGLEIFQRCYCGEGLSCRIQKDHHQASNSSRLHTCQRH
As to the kind of experiment: AP-tagged CRD-N and IgG-fused CRD-C, bead binding (FIG. 7 legend).

The target of assay [2] is T1, individual CRD-C domain of hDkk1 with point mutation D194A, IgG-fused (human). The assay can be described thus: AP-tagged Dkk1 mutant domain and IgG-fused CRD-C, bead binding, AP activity.
Assay [3] has as its target T2, extracellular domain of Kremen1, IgG-fused (Xenopus) (UniProt Q90Y90).
T2 sequence: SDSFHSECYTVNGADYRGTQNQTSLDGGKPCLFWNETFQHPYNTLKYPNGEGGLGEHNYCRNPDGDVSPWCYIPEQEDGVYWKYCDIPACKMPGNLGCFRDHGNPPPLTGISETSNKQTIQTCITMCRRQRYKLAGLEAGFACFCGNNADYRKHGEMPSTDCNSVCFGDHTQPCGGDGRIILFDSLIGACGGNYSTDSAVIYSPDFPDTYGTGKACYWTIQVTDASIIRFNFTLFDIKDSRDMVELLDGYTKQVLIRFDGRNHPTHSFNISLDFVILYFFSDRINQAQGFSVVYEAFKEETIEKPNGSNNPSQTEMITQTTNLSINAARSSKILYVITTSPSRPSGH
As to the kind of experiment: AP-tagged Dkk1 mutant and IgG-fused receptor, bead binding, AP activity.

Assay [4] addresses T2, extracellular domain of Kremen1, IgG-fused (Xenopus). The assay can be described thus: AP-tagged Dkk1 mutant and IgG-fused receptor, bead binding (FIG. 7 legend).
The target of assay [5] is T3, N1-AP fusion protein (CRD-N of hDkk1 fused with alkaline phosphatase) (human) (UniProt O94907).
T3 sequence: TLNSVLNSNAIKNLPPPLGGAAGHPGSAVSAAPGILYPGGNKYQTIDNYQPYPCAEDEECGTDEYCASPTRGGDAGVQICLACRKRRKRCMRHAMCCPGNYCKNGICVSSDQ
As to the kind of experiment: direct binding in vitro (resin-binding assay).

The target of assay [6] is T3, N1-AP fusion protein (CRD-N of hDkk1 fused with alkaline phosphatase) (human). As to the kind of experiment: enzyme-linked resin-binding assay, IgG fusion on GammaBind Plus sepharose, AP activity at 405 nm.

Numbering of substitutions follows the chain as printed. Names and notes keep the numbering of the source. Results are given in words; binding and its absence hold for the method and conditions named. Some binding calls cover weakened binding; strength is not graded here. Where a sequence is shown, tags or fusion partners need not be part of it.

B1: individual CRD-N domain of hDkk1 with point mutation H124D, AP-tagged (protein, not shown: large carriers)
chain: T3 sequence with H93D
B1: the binding entry in assay [1] and in assay [2] was “binds” each time.

B2: hDkk1-H124D, AP-tagged (protein, not shown: large carriers)
chain: TLNSVLNSNAIKNLPPPLGGAAGHPGSAVSAAPGILYPGGNKYQTIDNYQPYPCAEDEECGTDEYCASPTRGGDAGVQICLACRKRRKRCMRDAMCCPGNYCKNGICVSSDQNHFRGEIEETITESFGNDHSTLDGYSRRTTLSSKMYHTKGQEGSVCLRSSDCASGLCCARHFWSKICKPVLKEGQVCTKHRRKGSHGLEIFQRCYCGEGLSCRIQKDHHQASNSSRLHTCQRH
Take B2: the binding result in assay [3] and in assay [4] was “binds” in each case.

B3: hDkk1-D194A, AP-tagged (protein, not shown: large carriers)
chain: B2 chain with D93H, D163A
Consider B3, for which the binding entry in assay [3] and in assay [4] was “binds” throughout.

B4: hDkk1-H124D/D194A double mutant, AP-tagged (protein, not shown: large carriers)
chain: B2 chain with D163A
Turning to B4, the binding entry in assay [3] and in assay [4] was “binds” throughout.

B5: C1 fused to the constant region of human IgG1 (C1-IgG) (Fc fusion, not shown: a dimerising Fc or GST)
chain: T1 sequence with A51D
As to B5, the binding result in assay [5] and in assay [6] was “binds” throughout.

These data come from patent US7465585.
